Measured values reported in patent US9670249B2, “Amphiphilic peptides and hydrogel matrices thereof for bone repair” (Ben-Gurion University of the Negev Research and Development …, priority 2006, dated 2017).
“Also recorded” adds a separate entry of the source. At least one peptide structure holds a part that was inferred or is arguable (an end, a ring closure or a residue). Marks after values point to notes of the source that are not given here. Some compounds share one wording; it may come from a single statement. No end group written: not given here.

Columns and labels:
[1] = Hydrogel formation by dissolving peptides in NaOH solution; type: physicochemical; design: key to Form of product Liquid−/gel+: Liquid−; gel+; conditions: for Final pH value: +/−0.5 pH units; for Final pH / Form of product Liquid−/gel+ / Hydrogel formation (in words): 4% w/v peptide dissolved in 0.1M NaOH solution (pH 13)
Description: In general the matrix can be formed in the following way: dissolving the peptides at high pH above about 8) using either buffer (Tris) or NaOH. With the addition of the peptide the pH of the mixture drops and hydrogel may form. The peptide that is dissolved in alkaline solution can be titrated with HCl to a pH ˜7 to form yield a gel. The same can be done with HA or other mineral particles incorporated in the first step […]. Upon gelation the particles get trapped in the gel.
Four peptides were tested for their tendency to form hydrogels as function of pH and Ca^+2 ion concentrations. The peptides are 13 amino acids long having the sequence P-Y-(Z-Y)n-P, wherein n=5 and Y and Z are alternating hydrophilic (Y) and hydrophobic (Z) amino acids:
The experiment goal was to find appropriate conditions for hydrogel formation at physiological pH values (˜7.2) assuming that the type of amino acids in the dyads will determine the propensity of the system to form hydrogles thus the pH and the Ca^+2 ionic concentration of the system.
In an alkaline solution the acidic amino acid side chains tend to be negatively charged. Under these conditions charge-charge repulsive forces keep the peptides dissolved in solution. Upon lowering the pH the peptides which become uncharged undergo self-assembling through inter-strand hydrogen bonding, to form fibrous structure (FIG. 3) that stabilizes highly hydrated-gel, hydrogel. […] All the peptides lowered the pH of the solution to about 6-8 (Table 1).
In the next set of experiments the hypothesis that the more hydrophobic side chains would stabilize the beta-sheet fibril thus hydrogel formation, at higher pH values, was tested. Table 2 summarizes the effect of the hydrophobic side chain on the pH at which hydrogel is obtained. PLE-13 and PFE-13 were dissolved in different NaOH solutions to the same molar concentration (0.023M). […]

[2] = tested on: human osteosarcoma cell line SaOS-2; assay: 2D cell culture on hydrogels; type: cell-based; conditions: SaOS-2 cells seeded on thin hydrogel layer (<1 mm), 2D culture
[3] = Rheology measurements of hydrogel; type: physicochemical; conditions: 4% w/v hydrogel at pH=5, first sweep
[4] = Composite HA-PTM hydrogels (inclusion of HA particles); type: physicochemical; conditions: 4% w/v peptide, DMEM+bicarbonate, pH~7.5, HA 50%, 30%, 20% w/v
[5] = 0.023M PTM in 0.01 M NaOH (pH 12.0)
[6] = 0.023M PTM in 0.05 M NaOH (pH 12.7)
[7] = 0.023M PTM in 0.07 M NaOH (pH 12.8)
[8] = 0.023M PTM in 0.08 M NaOH (pH 12.9)
[9] = 0.023M PTM in 0.10 M NaOH (pH 13.0)

Row | Sequence | Final pH value [1, 5] | Final pH value [1, 6] | Final pH value [1, 7] | Final pH value [1, 8] | Final pH value [1, 9] | Final pH [1] | Form of product Liquid−/gel+ [1] | Hydrogel formation (in words) [1] | Hydrogel formation ([1]; weight concentration 4% in 100 μl NaOH solution) | Cell adhesion, spreading and proliferation on hydrogel [2] | G′ storage modulus [3] | Hydrogel formation loaded with HA particles [4]
1 | PDFDFDFDFDFDP [PFD-13, PD(FD)5P] | 5 | 7 | 7 | 7.5 | 8.5 | ~8 | − | no gel formation | does form hydrogel | can provide a proper environment for cell adhesion spreading and proliferation |  | 
2 | PDLDLDLDLDLDP [PLD-13, PD(LD)5P] | 4.5 | 5 | 6 | 7.5 | 8.5 | ~6 | − | no appearance of gel phase |  |  |  | 
3 | PEFEFEFEFEFEP [PFE-13, PE(FE)5P] | 5.5 | 6.5 |  | >7.0 | 8.0 | ~8 | − | no gel formation |  | can provide a proper environment for cell adhesion spreading and proliferation | ~3000 Pa | hydrogel formed
4 | PELELELELELEP [PLE-13, PE(LE)5P] | 5 | 6.5 | <7* | 7 | 8 | ~7 | + | formed self-supporting hydrogel; also recorded: formed a gel |  | can provide a proper environment for cell adhesion spreading and proliferation |  | 
